No constants are given. Whether binding was seen depends on the method and setting. For part of these data: In cells and extracts the contact can be indirect. Some binding calls cover weakened binding; strength is not graded here. Tags and fused reporters may be left off the sequences shown.
Columns and labels:
[1] = target: T1, GFP-TTL3ΔC2 (Arabidopsis thaliana) (UniProt Q9SIN1); test: co-IP
T1 sequence: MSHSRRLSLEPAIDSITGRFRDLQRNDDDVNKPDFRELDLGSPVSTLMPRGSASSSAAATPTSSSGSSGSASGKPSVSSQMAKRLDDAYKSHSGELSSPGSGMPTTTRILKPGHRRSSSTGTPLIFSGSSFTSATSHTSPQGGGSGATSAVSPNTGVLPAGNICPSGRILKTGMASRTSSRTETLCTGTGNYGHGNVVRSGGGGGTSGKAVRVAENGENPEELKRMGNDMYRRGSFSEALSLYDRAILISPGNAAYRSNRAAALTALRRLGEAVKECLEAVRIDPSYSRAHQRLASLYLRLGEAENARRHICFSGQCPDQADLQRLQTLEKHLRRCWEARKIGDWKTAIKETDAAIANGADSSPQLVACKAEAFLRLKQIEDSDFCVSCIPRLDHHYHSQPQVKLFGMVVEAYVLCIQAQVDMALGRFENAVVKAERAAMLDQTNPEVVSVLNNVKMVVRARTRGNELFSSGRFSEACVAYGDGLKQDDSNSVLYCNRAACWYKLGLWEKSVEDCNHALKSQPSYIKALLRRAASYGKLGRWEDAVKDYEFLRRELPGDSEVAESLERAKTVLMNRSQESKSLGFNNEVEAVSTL

Amino acid sequences for entries named in this document (tags omitted). A change or cut given only in a name is not applied to a line headed by its entry. Residues count along the entry.
UniProt O22476, 24-1196: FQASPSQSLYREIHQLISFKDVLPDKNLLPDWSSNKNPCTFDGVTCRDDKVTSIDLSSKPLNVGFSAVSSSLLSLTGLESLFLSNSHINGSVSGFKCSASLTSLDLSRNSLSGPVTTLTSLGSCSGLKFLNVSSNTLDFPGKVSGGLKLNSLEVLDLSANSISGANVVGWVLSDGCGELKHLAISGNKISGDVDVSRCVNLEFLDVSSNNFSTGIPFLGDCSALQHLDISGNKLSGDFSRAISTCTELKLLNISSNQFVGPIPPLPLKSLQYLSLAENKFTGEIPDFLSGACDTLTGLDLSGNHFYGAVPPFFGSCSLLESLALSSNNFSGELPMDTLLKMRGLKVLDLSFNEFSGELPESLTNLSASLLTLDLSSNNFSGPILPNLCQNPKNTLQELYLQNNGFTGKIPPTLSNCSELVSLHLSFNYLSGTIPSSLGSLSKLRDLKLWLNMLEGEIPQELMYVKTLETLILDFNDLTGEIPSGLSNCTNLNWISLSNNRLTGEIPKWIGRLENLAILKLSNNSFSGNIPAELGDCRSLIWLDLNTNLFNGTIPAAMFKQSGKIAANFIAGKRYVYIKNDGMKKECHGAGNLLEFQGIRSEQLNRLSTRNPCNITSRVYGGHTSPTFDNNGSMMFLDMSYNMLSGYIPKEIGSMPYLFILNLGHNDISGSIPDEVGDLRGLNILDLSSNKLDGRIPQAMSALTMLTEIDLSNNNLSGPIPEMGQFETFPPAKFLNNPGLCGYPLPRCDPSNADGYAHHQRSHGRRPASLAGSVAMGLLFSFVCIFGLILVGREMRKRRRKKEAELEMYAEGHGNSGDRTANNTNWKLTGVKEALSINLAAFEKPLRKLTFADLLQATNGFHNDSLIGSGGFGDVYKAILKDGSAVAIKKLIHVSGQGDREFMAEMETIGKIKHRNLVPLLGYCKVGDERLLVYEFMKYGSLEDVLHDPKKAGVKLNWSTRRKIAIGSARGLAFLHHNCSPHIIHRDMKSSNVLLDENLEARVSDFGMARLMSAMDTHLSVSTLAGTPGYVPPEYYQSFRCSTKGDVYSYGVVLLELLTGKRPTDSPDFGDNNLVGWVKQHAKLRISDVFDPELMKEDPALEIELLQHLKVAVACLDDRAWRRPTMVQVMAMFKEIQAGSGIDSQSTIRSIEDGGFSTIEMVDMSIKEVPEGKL
UniProt Q9LR78, whole entry: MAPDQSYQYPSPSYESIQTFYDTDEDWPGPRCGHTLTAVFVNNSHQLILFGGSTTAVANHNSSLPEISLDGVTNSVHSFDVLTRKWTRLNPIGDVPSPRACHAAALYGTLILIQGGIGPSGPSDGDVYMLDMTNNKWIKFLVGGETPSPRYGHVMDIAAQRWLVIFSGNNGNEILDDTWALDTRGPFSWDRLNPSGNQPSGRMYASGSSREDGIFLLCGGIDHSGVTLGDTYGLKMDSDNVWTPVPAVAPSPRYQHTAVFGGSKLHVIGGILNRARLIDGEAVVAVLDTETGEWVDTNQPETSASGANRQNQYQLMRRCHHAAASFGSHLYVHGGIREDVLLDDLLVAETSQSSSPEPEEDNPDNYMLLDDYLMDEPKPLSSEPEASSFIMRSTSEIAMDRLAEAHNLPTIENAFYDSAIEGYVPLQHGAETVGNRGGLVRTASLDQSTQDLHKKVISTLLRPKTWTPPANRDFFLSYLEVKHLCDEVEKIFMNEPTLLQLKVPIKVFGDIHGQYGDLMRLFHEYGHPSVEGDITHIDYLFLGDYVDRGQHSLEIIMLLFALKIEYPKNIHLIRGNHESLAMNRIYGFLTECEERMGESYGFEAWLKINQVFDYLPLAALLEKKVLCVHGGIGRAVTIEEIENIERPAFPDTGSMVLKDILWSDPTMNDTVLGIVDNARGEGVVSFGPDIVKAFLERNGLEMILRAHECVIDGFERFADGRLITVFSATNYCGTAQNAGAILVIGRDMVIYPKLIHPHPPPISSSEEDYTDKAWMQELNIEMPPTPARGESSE

[2] = target: T2, GFP-TTL3ΔN2 (Arabidopsis thaliana) (UniProt Q9SIN1); test: co-IP
T2 sequence: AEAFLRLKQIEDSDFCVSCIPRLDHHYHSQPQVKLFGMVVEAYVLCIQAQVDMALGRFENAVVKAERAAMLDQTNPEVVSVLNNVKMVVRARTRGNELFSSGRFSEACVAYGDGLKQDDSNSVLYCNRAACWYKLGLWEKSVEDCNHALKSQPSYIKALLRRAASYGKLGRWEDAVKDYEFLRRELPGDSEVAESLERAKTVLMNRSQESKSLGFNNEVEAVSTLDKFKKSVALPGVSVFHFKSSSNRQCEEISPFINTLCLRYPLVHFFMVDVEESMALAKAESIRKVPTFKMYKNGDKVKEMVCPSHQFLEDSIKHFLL

[3] = target: T3, GFP-TTL3 full length (Arabidopsis thaliana) (UniProt Q9SIN1); test: co-IP
T3 sequence: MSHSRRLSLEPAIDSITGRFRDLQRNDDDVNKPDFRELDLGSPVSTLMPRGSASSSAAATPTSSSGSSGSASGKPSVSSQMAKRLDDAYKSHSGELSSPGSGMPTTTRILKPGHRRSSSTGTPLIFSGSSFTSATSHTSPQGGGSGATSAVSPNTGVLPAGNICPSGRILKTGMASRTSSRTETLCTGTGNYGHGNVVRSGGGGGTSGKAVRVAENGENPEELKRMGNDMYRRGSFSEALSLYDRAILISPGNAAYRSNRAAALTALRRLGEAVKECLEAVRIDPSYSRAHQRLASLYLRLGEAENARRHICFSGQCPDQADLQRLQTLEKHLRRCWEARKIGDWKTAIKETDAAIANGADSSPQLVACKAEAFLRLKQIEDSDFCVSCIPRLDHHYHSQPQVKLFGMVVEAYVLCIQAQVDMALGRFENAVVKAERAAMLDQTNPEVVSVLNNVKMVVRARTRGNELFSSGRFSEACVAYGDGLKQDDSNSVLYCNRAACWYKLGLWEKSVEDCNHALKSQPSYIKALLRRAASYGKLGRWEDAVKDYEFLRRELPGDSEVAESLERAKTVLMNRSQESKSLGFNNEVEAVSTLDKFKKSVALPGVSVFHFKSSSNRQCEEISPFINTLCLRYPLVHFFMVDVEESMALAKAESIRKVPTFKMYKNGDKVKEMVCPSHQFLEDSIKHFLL

[4] = target: T4, GFP-TTL3ΔN3 (Arabidopsis thaliana) (UniProt Q9SIN1); test: co-IP
T4 sequence: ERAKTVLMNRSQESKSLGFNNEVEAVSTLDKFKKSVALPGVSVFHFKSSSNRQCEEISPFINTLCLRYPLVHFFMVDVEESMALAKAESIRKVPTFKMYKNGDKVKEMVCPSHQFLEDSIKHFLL

[5] = target: T5, TTL3-GFP (N. benthamiana) (Arabidopsis thaliana) (UniProt Q9SIN1); test: co-IP
T5 sequence: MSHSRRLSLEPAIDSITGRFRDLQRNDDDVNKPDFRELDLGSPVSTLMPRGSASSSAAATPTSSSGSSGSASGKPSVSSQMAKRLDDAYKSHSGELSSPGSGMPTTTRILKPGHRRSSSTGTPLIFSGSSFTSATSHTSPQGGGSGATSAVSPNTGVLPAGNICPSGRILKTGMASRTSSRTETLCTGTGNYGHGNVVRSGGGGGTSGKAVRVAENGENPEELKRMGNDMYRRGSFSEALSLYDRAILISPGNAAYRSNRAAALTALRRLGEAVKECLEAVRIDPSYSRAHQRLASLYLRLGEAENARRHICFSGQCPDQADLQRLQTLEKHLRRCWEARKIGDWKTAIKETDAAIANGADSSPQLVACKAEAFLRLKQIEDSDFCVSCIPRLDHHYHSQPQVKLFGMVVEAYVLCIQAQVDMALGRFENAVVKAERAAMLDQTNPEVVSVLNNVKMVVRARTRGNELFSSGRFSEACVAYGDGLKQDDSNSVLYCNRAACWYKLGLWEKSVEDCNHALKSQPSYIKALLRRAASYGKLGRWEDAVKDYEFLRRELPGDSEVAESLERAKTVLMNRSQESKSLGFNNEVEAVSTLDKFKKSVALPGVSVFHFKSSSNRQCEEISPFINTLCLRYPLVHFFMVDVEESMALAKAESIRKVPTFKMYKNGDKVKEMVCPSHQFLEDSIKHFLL

[6] = target: T6, GFP-TTL3ΔN1 (Arabidopsis thaliana) (UniProt Q9SIN1); test: co-IP
T6 sequence: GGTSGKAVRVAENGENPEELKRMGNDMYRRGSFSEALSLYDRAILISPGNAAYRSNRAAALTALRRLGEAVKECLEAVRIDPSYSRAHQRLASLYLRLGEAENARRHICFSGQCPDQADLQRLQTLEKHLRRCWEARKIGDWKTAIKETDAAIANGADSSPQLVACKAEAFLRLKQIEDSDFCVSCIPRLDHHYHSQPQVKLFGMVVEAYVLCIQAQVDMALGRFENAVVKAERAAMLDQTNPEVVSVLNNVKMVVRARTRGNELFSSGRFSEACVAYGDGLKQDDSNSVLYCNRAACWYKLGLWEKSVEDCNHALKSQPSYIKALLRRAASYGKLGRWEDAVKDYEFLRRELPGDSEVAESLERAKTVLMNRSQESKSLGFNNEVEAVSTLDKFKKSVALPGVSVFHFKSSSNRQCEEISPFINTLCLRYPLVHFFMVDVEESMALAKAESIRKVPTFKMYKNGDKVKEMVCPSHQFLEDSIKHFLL

[7] = target: T7, TTL3ΔN1 (yeast two-hybrid fusion) (Arabidopsis thaliana) (UniProt Q9SIN1); test: two-hybrid
T7 sequence: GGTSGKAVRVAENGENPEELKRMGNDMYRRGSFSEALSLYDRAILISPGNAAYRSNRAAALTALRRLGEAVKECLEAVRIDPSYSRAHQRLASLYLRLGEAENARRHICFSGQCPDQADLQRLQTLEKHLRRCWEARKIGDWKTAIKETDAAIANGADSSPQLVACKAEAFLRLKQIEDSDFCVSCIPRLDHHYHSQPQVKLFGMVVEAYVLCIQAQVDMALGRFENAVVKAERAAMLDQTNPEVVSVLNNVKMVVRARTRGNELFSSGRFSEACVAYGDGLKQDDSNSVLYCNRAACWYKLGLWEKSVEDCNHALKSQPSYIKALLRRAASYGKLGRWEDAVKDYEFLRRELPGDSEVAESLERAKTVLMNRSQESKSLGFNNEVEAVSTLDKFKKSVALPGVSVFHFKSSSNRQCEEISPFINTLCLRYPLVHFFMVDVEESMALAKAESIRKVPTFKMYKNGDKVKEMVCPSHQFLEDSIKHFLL

[8] = target: T8, BIN2 (yeast two-hybrid fusion) (Arabidopsis thaliana) (UniProt Q39011); test: two-hybrid
T8 sequence: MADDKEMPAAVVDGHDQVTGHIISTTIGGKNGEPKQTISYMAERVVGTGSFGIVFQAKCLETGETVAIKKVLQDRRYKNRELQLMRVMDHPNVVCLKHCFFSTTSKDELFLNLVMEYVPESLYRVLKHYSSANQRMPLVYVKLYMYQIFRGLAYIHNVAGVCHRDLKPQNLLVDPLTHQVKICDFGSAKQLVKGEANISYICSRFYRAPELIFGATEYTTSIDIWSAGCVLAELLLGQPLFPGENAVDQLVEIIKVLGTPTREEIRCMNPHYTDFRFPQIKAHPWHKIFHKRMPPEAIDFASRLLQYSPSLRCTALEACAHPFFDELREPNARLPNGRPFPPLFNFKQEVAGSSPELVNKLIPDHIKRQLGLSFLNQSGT

[9] = target: T9, TTL3ΔN2 (yeast two-hybrid fusion) (Arabidopsis thaliana) (UniProt Q9SIN1); test: two-hybrid
T9 sequence: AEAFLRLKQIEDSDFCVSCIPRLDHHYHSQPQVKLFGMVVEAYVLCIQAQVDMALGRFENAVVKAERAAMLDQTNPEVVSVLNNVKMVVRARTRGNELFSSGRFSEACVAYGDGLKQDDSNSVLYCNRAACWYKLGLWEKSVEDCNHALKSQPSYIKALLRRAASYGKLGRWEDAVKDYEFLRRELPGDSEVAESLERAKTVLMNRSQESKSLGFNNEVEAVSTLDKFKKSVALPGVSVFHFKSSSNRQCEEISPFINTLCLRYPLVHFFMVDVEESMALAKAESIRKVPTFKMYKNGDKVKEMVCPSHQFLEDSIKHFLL

BRI1-HA (from UniProt O22476 24-1196) (receptor)
binding [1]: binds | binding [2]: binds | binding [3]: binds | binding [4]: no binding | binding [5]: binds | binding [6]: binds

BSU1 (yeast two-hybrid fusion) (from UniProt Q9LR78 1-793) (enzyme)
binding [7]: binds | binding [8]: binds | binding [9]: no binding

From publication doi:10.1101/351056
